Counter-ions that a name gives are not always drawn. Screen size: about 1,200 compounds; about 50 (4%) showed activity. No stated cut-off is given here; in the data, all actives reach 1.3 or more but so do some inactives. The list shows a part of the results.
The compounds below were run on Lgr5 (MarsCy1-Lgr5-EGFP, U2OS) (assay: cell-surface Lgr5 expression (SCi1 fluorescence, background-subtracted) relative to WT DMSO (fold of DMSO control); higher = more Lgr5 at the plasma membrane, active = hit call of the paper). Settings: U2OS MarsCy1-Lgr5-EGFP stable; treatment time: overnight; 16 µM; library: Johns Hopkins Clinical Compound Library.

cell-surface Lgr5 expression, inactive:
O=C1CC[C@@](c2ccccc2)(C2CCN(Cc3ccccc3)CC2)C(=O)N1 [Dexetimide] 1.08
Nc1nnc(-c2cccc(Cl)c2Cl)c(N)n1 [Lamotrigine] 1.08
Nc1nc(=O)[nH]cc1F [Flucytosine (5-Fluorocytosine)] 0.748
NC[C@H]1O[C@H](O[C@H]2[C@H](O)[C@@H](O[C@H]3O[C@H](CO)[C@@H](O)[C@H](N)[C@H]3O)[C@H](N)C[C@@H]2N)[C@H](N)[C@@H](O)[C@@H]1O [Kanamycin B sulfate salt] 0.875
CC(=O)O[C@]1(C(C)=O)CC[C@H]2[C@@H]3C=C(C)C4=CC(=O)CC[C@]4(C)[C@H]3CC[C@@]21C [Megestrol Acetate] 1.29
Cc1ccc(C(C)C)c(O)c1 [Thymol] 1.24
CC(=O)[O-].CC(=O)[O-].O.O.[Zn+2] [Zinc acetate] 0.705
Cc1cc(OI)c(C(C)C)cc1-c1cc(C(C)C)c(OI)cc1C [Thymol iodide] 1.11
C[C@@H]1O[C@@H](OC[C@H]2O[C@@H](Oc3c(-c4ccc(O)c(O)c4)oc4cc(O)cc(O)c4c3=O)[C@H](O)[C@@H](O)[C@@H]2O)[C@H](O)[C@H](O)[C@H]1O [Rutin trihydrate] 0.995
O=[N+]([O-])c1ccc(O)cc1 [4-Nitrophenol] 1.17
CN1[C@@H]2CC[C@H]1C[C@@H](OC(c1ccccc1)c1ccccc1)C2 [Benztropine Methane-Sulfonate] 0.629
CN1[C@@H]2CC[C@H]1C[C@@H](OC(c1ccccc1)c1ccccc1)C2 [Benztropine mesylate] 0.565
CO[C@H]1O[C@H](COS(=O)(=O)O)[C@@H](O[C@@H]2O[C@@H](C(=O)O)[C@@H](O[C@H]3O[C@H](COS(=O)(=O)O)[C@@H](O[C@@H]4O[C@H](C(=O)O)[C@@H](O[C@H]5O[C@H](COS(=O)(=O)O)[C@@H](O)[C@H](O)[C@H]5NS(=O)(=O)O)[C@H](O)[C@H]4O)[C@H](OS(=O)(=O)O)[C@H]3NS(=O)(=O)O)[C@H](O)[C@H]2OS(=O)(=O)O)[C@H](O)[C@H]1NS(=O)(=O)O [Fondaparinux sodium] 1.07
O=C(Nc1ccccc1)OCC(CN1CCCCC1)OC(=O)Nc1ccccc1 (configuration not stated) [Diperodon hydrochloride] 0.89
O=C(OCc1ccccc1)c1cccnc1 [Benzyl nicotinate] 1.1
CC(=O)Oc1cc(C)c(OC(C)=O)c2ccccc12 [Acetomenaphthone (2-Methyl-1,4-naphthalenediol diacetate)] 1.12
CCCCC1C(=O)N(c2ccccc2)N(c2ccccc2)C1=O [Phenylbutazone] 1.11
CCC(O)c1ccccc1 (configuration not stated) [Phenylpropanol (1-phenyl 1-propanol)] 1.21
CCCc1nc2c(C)cc(-c3nc4ccccc4n3C)cc2n1Cc1ccc(-c2ccccc2C(=O)O)cc1 [Telmisartan] 0.522
O=C1C=CC(=O)C(O)=C1 [Hydroxyquinone] 0.824
CNCCCCOc1ccccc1Cc1ccccc1 [Bifemelane] 1.23
CCCCOC(=O)c1ccc(O)cc1 [Butyl paraben (Butyl-4-hydroxybenzoate)] 0.906
C#C[C@]1(OC(C)=O)CC[C@H]2[C@@H]3CCC4=CC(=O)CC[C@@H]4[C@H]3CC[C@@]21C 1.13
CC1=CC(=O)c2ccccc2C1=O [Menadione] 0.928
CC1=CC(=O)c2ccccc2C1=O [Vitamin K3] 0.794
CC(=O)/N=c1/sc(S(N)(=O)=O)nn1C [Methazolamide] 1.1
N=C(N)N1CCc2ccccc2C1 [Debrisoquin sulfate] 1.35
CN(C)CCOc1ccccc1Cc1ccccc1 [Phenyltoloxamine] 1.18
c1ccc2c(c1)[nH]c1ccccc12 [Carbazole] 0.919
O=C(O)Cc1cc(I)c(Oc2ccc(O)c(I)c2)c(I)c1 [Tiratricol (3,3',5-triiodothyroacetic acid)] 1.29
CNCC[C@@H](Oc1ccccc1C)c1ccccc1 [Atomoxetine] 0.723
CO[C@H]1C=CO[C@@]2(C)Oc3c(C)c(O)c4c(O)c(c(C=O)c(O)c4c3C2=O)NC(=O)C(C)=CC=C[C@H](C)[C@H](O)[C@@H](C)[C@@H](O)[C@@H](C)[C@H](OC(C)=O)[C@@H]1C [3-formyl Rifamycin] 1.12
Cl.Cl.NCCN [Ethylenediamine dihydrochloride] 1.05
O=C(O)c1ccc[n+]([O-])c1 [Oxiniacic acid (nicotinic acid n-oxide)] 0.989
Cc1cc(C(C)(C)C)cc(C)c1CC1=NCCN1 [Xylometazoline] 1.26
CC(C)(CO)[C@@H](O)C(=O)NCCC(=O)O [D-Pantothenic acid calcium salt] 1.2
C[C@@H]1C[C@H]2[C@@H]3CCC4=CC(=O)C=C[C@]4(C)[C@@]3(F)[C@@H](O)C[C@]2(C)[C@H]1C(=O)CO 1.41
COc1cc2nc(N3CCN(C(=O)C4COc5ccccc5O4)CC3)nc(N)c2cc1OC (configuration not stated) [Doxazosin mesylate salt] 0.689
CC#C[C@]1(O)CC[C@H]2[C@@H]3CCC4=CC(=O)CCC4=C3[C@@H](c3ccc(N(C)C)cc3)C[C@@]21C [Mifepristone] 0.55
C[C@@H]1C/C=C/C=C/C=C/C=C/[C@H](O[C@@H]2O[C@H](C)[C@@H](O)[C@H](N)[C@@H]2O)C[C@@H]2O[C@](O)(C[C@@H](O)C[C@H]3O[C@@H]3/C=C/C(=O)O1)C[C@H](O)[C@H]2C(=O)O [Natamycin (Pimaricin)] 0.845
CC(C)[C@H](N)C(=O)OCCOCn1cnc2c(=O)nc(N)[nH]c21 [Valacyclovir] 0.742
CN1CCN2c3ncccc3Cc3ccccc3C2C1 (configuration not stated) [Mirtazapine] 0.867
COC(=O)N/N=C/c1c[n+]([O-])c2ccccc2[n+]1[O-] [Carbadox] 1.02
COc1cc(CNC(=O)CCCC/C=C/C(C)C)ccc1O [Capsaicin] 0.962
C=C1O[C@@](CO)(n2cnc3c(N)ncnc32)[C@H](O)[C@@H]1O [Decoyinine] 1.19
COC(=O)[C@H](Cc1ccccc1)NC(=O)[C@@H](N)CC(=O)O [Aspartame] 0.834
CCCCOc1cc(C(=O)OCCN(CC)CC)ccc1N [Benoxinate] 0.987
CC(=O)Nc1nnc(S(N)(=O)=O)s1 [Acetazolamide] 0.969
O=C(O)C1=C(CSc2nnnn2CS(=O)(=O)O)CS[C@@H]2[C@H](NC(=O)[C@H](O)c3ccccc3)C(=O)N12 [Cefonicid sodium] 0.936
[Mg+2].[O-][O-] [Magnesium peroxide] 1.12
NC[C@H](O)c1ccc(O)c(O)c1 [Norepinephrine] 1.26
CCN(CC)CCNC(=O)c1ccc(N)cc1 [Procainamide HCL] 0.981
C[C@@H]1CCC[C@H](C)N1NC(=O)c1ccc(Cl)c(S(N)(=O)=O)c1 [Clopamide] 1.3
CC[C@H]1OC(=O)[C@H](C)[C@@H](O[C@H]2C[C@@](C)(OC)[C@@H](O)[C@H](C)O2)[C@H](C)[C@@H](O[C@@H]2O[C@H](C)C[C@H](N(C)C)[C@H]2O)[C@](C)(O)C[C@@H](C)CN(C)[C@H](C)[C@@H](O)[C@]1(C)O [Azithromycin dihydrate] 0.522
CN[C@H]1CC[C@@H](c2ccc(Cl)c(Cl)c2)c2ccccc21 [Sertraline hydrochloride] 0.149
O=S(=O)([O-])[O-].[Fe+2] [Ferrous sulfate] 0.888
O=C(O)c1ccccc1I [2-Iodobenzoic acid] 1.04
Nc1ccc(S(=O)(=O)Nc2nccs2)cc1 [Sulfathiazole] 1.03
CC(C)NCC(O)COc1ccc(CC(N)=O)cc1 (configuration not stated) [Atenolol] 1.03
CCCCCCCCCCCCCCCC[N+](C)(C)Cc1ccccc1 1.49
CN(CCCCCCCCCCN(C)C(=O)Oc1cccc([N+](C)(C)C)c1)C(=O)Oc1cccc([N+](C)(C)C)c1 [Demecarium bromide] 0.912
CCCCCCCC(=O)OCC(COC(=O)CCCCCCC)OC(=O)CCCCCCC [Tricaprilin (Glyceryl trioctanoate)] 0.971
O[C@@H]([C@H](O)[C@H](O)CBr)[C@H](O)CBr [Mitobronitol (1,6-Dibromo-1,6-dideoxy-D-mannitol)] 1.13
CC1OC2(CS1)CN1CCC2CC1 (configuration not stated) [Cevimeline hydrochloride] 0.73
CC1OC2(CS1)CN1CCC2CC1 (configuration not stated) [Cevimeline] 1.16

Looked up one by one from above, four records:
cell-surface Lgr5 expression, inactive:
Nc1nnc(-c2cccc(Cl)c2Cl)c(N)n1 [Lamotrigine] 1.08
CC1=CC(=O)c2ccccc2C1=O [Menadione] 0.928
C[C@@H]1CCC[C@H](C)N1NC(=O)c1ccc(Cl)c(S(N)(=O)=O)c1 [Clopamide] 1.3
Nc1ccc(S(=O)(=O)Nc2nccs2)cc1 [Sulfathiazole] 1.03

Following part.

cell-surface Lgr5 expression, active:
C=CCOc1ccccc1OCC(O)CNC(C)C (configuration not stated) [Oxprenolol] 1.42
NC[C@H](O)c1ccc(O)c(O)c1 [Arterenol (Norepinephrine)] 1.3
